In PMC3314686:
Results are given in words; binding and its absence hold for the method and conditions named. In cells and extracts the contact can be indirect. Some binding calls cover weakened binding; strength is not graded here.

Sequences of proteins named here, by UniProt entry; tags and fusion partners are left off. A change or cut given only in a name is not applied to a line headed by its entry.
UniProt P60520: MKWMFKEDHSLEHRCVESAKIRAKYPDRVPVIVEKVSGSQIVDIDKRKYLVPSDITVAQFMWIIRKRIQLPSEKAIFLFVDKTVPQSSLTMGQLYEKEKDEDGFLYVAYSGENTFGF
UniProt O95166: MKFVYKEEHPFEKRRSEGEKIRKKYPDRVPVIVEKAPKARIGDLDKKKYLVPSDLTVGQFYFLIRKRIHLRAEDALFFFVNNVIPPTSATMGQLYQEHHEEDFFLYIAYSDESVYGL
UniProt Q96A56: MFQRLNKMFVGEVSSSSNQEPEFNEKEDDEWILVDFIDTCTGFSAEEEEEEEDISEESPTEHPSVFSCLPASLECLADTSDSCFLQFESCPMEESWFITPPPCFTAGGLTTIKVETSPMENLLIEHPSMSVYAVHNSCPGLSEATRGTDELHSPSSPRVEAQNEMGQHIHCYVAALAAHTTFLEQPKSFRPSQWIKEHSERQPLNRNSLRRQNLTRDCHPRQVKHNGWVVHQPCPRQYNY
UniProt Q8IXH6: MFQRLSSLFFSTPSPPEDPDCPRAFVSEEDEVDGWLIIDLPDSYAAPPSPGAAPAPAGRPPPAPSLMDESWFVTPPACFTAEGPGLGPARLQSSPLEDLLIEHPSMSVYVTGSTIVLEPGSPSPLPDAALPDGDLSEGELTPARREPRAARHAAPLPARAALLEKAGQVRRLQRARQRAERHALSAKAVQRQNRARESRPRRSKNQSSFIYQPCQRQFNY

Tests used:
Test in all cases: pull-down; GST fusion proteins purified and immobilized on glutathione-sepharose beads; 35S-labelled in vitro translated GFP-tagged proteins diluted 20x in NET-N buffer (20 mM Tris-HCl pH 8.0, 100 mM NaCl, 1 mM EDTA, 0.5% Nonidet P-40), pre-cleared, incubated at least 2 h at 4°C; five washes; SDS-PAGE and autoradiography; only the target purified
GST-GABARAP-L2 (human) = GST-GABARAP-L2 (human) (UniProt P60520)
GST-LC3A (human) = GST-LC3A (human) (UniProt Q9H492)
GST-GABARAP (human) = GST-GABARAP (human) (UniProt O95166)

Row | binding (GST-GABARAP-L2 (human)) | binding (GST-LC3A (human)) | binding (GST-GABARAP (human)) | Substance
1 | binds | binds | binds | GFP-TP53INP1 (aa 23-42), LIR peptide of TP53INP1 (from UniProt Q96A56 23-42) (domain or fragment)
2 | binds | binds | binds | GFP-DOR (human DOR/TP53INP2, full length) (from UniProt Q8IXH6 1-220)
3 | binds | binds | binds | GFP-TP53INP1 (human TP53INP1 isoform a, full length) (from UniProt Q96A56-1 1-240)
4 | binds | binds weakly | binds | GFP-DOR (aa 27-46), LIR peptide of DOR (from UniProt Q8IXH6 27-46) (domain or fragment)
